Measurements from patent publication US20250353895A1, “METHOD FOR ANALYZING G-PROTEIN CONJUGATED RECEPTOR” (Kao Corporation, priority 2022, published 2025).

B1: consensus GPR88: consensus GPCR of human GPR88 (protein)
chain: MTNSTSGGSLLLLCSWAGRRIPVSLLYSGLAIGGTLANGMVIYLVSSFRKLQTTSNAFIVNGCAADLSVCALWMPQEAVLGLLPTGSAEPPGGSYRLLRGGLLGLGLTVSLLSHCLVALNRYLLITRAPAYQALYQRRHTAGMLALSWALALGLVLLLPPWAPRPGAAPPRVHYPALLAAAALLAQTALLLHCYLGIVRRVRVSVKRVSVLNFHLLHQLPGCAAAAHPRRAQRRLSGLSVLLLCCVFLLATQPLVWVSLASGFSLPVPWGVQAASWLLCCALSALNPLLYTWRNEEFRRSVRSVLPGVGDAAAAAVAAAVPAVQLGTRAAGQHW
B2: consensus GPR171: consensus GPCR of human GPR171 (protein)
chain: MTNSSFFCPVYKDLEPFTYFFYLVFLVGIIGSCFATWAFIQKNTNHRCVSIYLINLLTADFLLTLALPVKIVVDLGVAPWKLRIFHCQVTACLIYINMYLSIIFLAFVSIDRCLQLTHSCKIYRIQEPGFAKMISTVVWLMVLLIMVPNMMIPIKDIKEKPNVGCMEFKKEFGRNWHLLTNFICVAIFLNFSAIILISNCLVIRQLYRNKDNENYPNVKKALINILLVTAGYIICFVPYHIVRIPYTLSQTEVISDCSTRISLFKAKEATLLLAVSNLCFDPILYYHLSKAFRLKVTETFASPKETKAQKEKLRCENNA
B3: consensus VN1R1: consensus GPCR of human VN1R1 (protein)
chain: MVGDTLKLLSPLMTRYFFLLFYSTDSSDFNENQHPLDFDGMASGKLESGISFLIQTGVGILGNSFLLCFYNFILLTGNKLRPMDLILSQLALANSLVLFSKGIPQTMAAFGLKYFLDDTGCKLVFYYHRVGTGVSFSTICLLNGFQAIKLNPSICRWLELKIRSPKFIGFCCFLCWAPHLLINTSVLFLVNGPLNSKNLSVKNNYGYCSWKMPERFGTLYTVLYFSPDFMSLGFMVWASGSMVFVLYRHKQRVQHIHSNRLSSRPSHEARATHTIMVLVSSFFAFYSVHSILTIWMTVVANPGQWIVNNSVFVASCFPAFSPFVLIFSDTHVSQFCFACRTKKTLFPDLVAMP
B4: consensus VN1R2: consensus GPCR of human VN1R2 (protein)
chain: MASVDLFIGMIVLFQVVVGILGNFSLLYHYMFLYFRGCKPRSTDLILRHLTVANSLVILSRGIPETMAAFGLKHFDNYFGCKFLLYVHRVARGVSIGSTCLLSVFQVITINPRNSRWAEMKVKAPKYIGLSSILCWVLHMLVNAIFPIYTTGKWSNKNITKKGDLGYCSAPLHDEVIKSVYAALTSFHDVLCLGLMTWASSSMVFVLYRHKQQVQHIHRNNLSPRSSPENRATQSILVLVSTFVSFYALSSIIYVYLALFDNSSWWLVNTAALITACFPTISPFVLMCHDPSISRLCCICCGRNR
B5: consensus VN1R4: consensus GPCR of human VN1R4 (protein)
chain: MASRYVAVGMIFLSQTVVGVLGNFSLLLHYLSLYCTGCRLRSTDLIVKHLIVANFLALLCKGVPQTMAAFGVRYFLNAIGCKLVFYLHRVGRGVSIGTTCLLSVFQVITISSRKSRWAKLKEKAPKHVGFSVLLCWILCMLVNIIFPMYVTGKWNYTNITVNKDLGYCSGGGNNKIAQTLRAMLLSFPDVLCLGLMLWASSSMVCILHRHKQRVQHIDRSNLSPRASPENRATQSILILVSTFVSSYTLSCLFQVCIALLDNPNSLLVNTSALMSVCFPTLSPFVLMSCDPSVYRLCFAWKR

Test system: HEK293 cells
Assay: Measurement of receptor protein level on cell membrane (flow cytometry), receptor gene co-transfected with RTP1S
Type: cell-based, human
Conditions: consensus receptor on HEK293 cells; PE signal normalised, NC (no receptor) 0%, PC (FLAG-M2 acetylcholine receptor) 100%; average of three experiments

Molecule | Consensus Membrane expression level (%)
B1 | 27.25%
B2 | 108.04%
B3 | 4.17%
B4 | 14.42%
B5 | 0.87%
